{
  "sequences": {"note": "By UniProt entry, the sequences of proteins in these tests, tags left out.", "UniProt P03182": "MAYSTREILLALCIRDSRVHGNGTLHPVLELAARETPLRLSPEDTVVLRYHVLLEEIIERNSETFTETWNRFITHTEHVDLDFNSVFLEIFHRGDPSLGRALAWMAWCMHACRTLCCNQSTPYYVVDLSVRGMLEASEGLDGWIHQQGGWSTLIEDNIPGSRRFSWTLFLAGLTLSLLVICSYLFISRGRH", "UniProt Q7Z434": "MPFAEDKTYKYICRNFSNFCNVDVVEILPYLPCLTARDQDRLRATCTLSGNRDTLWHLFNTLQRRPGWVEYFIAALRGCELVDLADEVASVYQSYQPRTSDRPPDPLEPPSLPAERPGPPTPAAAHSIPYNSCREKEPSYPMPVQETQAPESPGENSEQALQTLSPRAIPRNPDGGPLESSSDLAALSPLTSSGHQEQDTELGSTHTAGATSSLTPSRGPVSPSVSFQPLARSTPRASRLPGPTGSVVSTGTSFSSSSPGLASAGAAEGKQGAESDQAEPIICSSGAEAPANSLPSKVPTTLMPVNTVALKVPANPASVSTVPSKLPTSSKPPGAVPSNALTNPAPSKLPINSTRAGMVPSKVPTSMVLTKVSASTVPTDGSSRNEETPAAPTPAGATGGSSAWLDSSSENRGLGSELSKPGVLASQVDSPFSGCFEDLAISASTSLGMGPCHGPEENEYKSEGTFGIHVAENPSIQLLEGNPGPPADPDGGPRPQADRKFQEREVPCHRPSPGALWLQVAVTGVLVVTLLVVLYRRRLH"},
  "source": "paper PMC10372749",
  "molecules": {"B1": {"name": "GMIP, endogenous (protein, UniProt Q9P107 1-970)", "chain": "MDAAEPGLPPGPEGRKRYSDIFRSLDNLEISLGNVTLEMLAGDPLLSEDPEPDKTPTATVTNEASCWSGPSPEGPVPLTGEELDLRLIRTKGGVDAALEYAKTWSRYAKELLAWTEKRASYELEFAKSTMKIAEAGKVSIQQQSHMPLQYIYTLFLEHDLSLGTLAMETVAQQKRDYYQPLAAKRTEIEKWRKEFKEQWMKEQKRMNEAVQALRRAQLQYVQRSEDLRARSQGSPEDSAPQASPGPSKQQERRRRSREEAQAKAQEAEALYQACVREANARQQDLEIAKQRIVSHVRKLVFQGDEVLRRVTLSLFGLRGAQAERGPRAFAALAECCAPFEPGQRYQEFVRALRPEAPPPPPPAFSFQEFLPSLNSSPLDIRKKLSGPLPPRLDENSAEPGPWEDPGTGWRWQGTPGPTPGSDVDSVGGGSESRSLDSPTSSPGAGTRQLVKASSTGTESSDDFEERDPDLGDGLENGLGSPFGKWTLSSAAQTHQLRRLRGPAKCRECEAFMVSGTECEECFLTCHKRCLETLLILCGHRRLPARTPLFGVDFLQLPRDFPEEVPFVVTKCTAEIEHRALDVQGIYRVSGSRVRVERLCQAFENGRALVELSGNSPHDVSSVLKRFLQELTEPVIPFHLYDAFISLAKTLHADPGDDPGTPSPSPEVIRSLKTLLVQLPDSNYNTLRHLVAHLFRVAARFMENKMSANNLGIVFGPTLLRPPDGPRAASAIPVTCLLDSGHQAQLVEFLIVHYEQIFGMDELPQATEPPPQDSSPAPGPLTTSSQPPPPHLDPDSQPPVLASDPGPDPQHHSTLEQHPTATPTEIPTPQSDQREDVAEDTKDGGGEVSSQGPEDSLLGTQSRGHFSRQPVKYPRGGVRPVTHQLSSLALVASKLCEETPITSVPRGSLRGRGPSPAAASPEGSPLRRTPLPKHFEITQETARLLSKLDSEAVPRATCCPDVQPEEAEDHL"}, "B2": {"name": "EBV primase BSLF1 (enzyme, UniProt P03193 1-874)", "chain": "MSAPVVIKALVASNTDIAEAILDAILSRPDEGFRLFCLCHNASPLHHVAGSLVELQLHLPKKRLTSQSRCGLVLTLHLPAEEAFPFLRGLTPLTADRLSTYLDRAGALRSLTPLVELLTLSAKKQPQGDARGRVAWLRPKIVGCLRRIYRVNISARWFISTFGSHEAQFVLVTAAYYFWGIPCTIETLAHLTELFTSESGQSLAAVTSLAELGEVFGSSAWAEQTEAFAHFAHEKLRRDSREIRAVARTIDAYRGRLPLASADLVRYVYLAHAQCFNEGTFKRYSQLTSMGEIGCLPSGGVVLPSLLDRGFAEHMRTYFTRETYLAEHVRVQQLKIRMEPPAPYTWDPDPDDGLMRAWAGLSVDVARELVELARWHADEGPTYPPTLQGFLCLAGQATCRGQWNPKEQFLPPTVLRRVQRLPVFLCHFADRHYFVMTAADPFSSHLAEVVSTPTNCRLPDTCLTRALSYTPVYYSQNSLSEQLFVSRHEYFNPRLPVCNLVLDLDLKIKGAPWSLEEIYDLCRTVRREVLRLMRRLGPVSRAHPVYFFKSACPPADPDNMEDVLPFCICTGKLGFRVITPLPRGHAIVGTSAVQGFVSVLQKLMGLTACLRRMRHKIKEIGAPLFDSGVYHAGRCIRLPHTYKVDRGGGLSRQLRLFVCHPEEEDKHSYVKNALNIQNLLHHSLHVGWPAPKTFCYHIADDGRDYLIQRTRETLPPTVENVCAMIEGHLGLDLVAWVSSCIWPSLMSTLATAVPEDKFPQFLHVTFEQTGPNLVQVCHARGRNFACLRHTHRASSKNVRVFLVLYYTSQAITVTFMSQCFAGRCGANQPTAHFSISVPASRIINRAEASQDSTTSQLARRRDRQDGSFSETLPN"}},
  "assay_in_all_cases": "affinity purification with mass spectrometry",
  "key": {"[1]": {"molecular_target": "EBV BHRF1, HA-tagged (pLIX402-BHRF1) (Epstein-Barr virus (type I)) (UniProt P03182)"}, "[2]": {"molecular_target": "EBV tegument protein BGLF2, HA-tagged (pLIX402-BGLF2) (Epstein-Barr virus (type I))"}, "[3]": {"molecular_target": "T1, EBV viral helicase BBLF4 (Epstein-Barr virus (type I)) (UniProt P03214)", "T1 sequence": "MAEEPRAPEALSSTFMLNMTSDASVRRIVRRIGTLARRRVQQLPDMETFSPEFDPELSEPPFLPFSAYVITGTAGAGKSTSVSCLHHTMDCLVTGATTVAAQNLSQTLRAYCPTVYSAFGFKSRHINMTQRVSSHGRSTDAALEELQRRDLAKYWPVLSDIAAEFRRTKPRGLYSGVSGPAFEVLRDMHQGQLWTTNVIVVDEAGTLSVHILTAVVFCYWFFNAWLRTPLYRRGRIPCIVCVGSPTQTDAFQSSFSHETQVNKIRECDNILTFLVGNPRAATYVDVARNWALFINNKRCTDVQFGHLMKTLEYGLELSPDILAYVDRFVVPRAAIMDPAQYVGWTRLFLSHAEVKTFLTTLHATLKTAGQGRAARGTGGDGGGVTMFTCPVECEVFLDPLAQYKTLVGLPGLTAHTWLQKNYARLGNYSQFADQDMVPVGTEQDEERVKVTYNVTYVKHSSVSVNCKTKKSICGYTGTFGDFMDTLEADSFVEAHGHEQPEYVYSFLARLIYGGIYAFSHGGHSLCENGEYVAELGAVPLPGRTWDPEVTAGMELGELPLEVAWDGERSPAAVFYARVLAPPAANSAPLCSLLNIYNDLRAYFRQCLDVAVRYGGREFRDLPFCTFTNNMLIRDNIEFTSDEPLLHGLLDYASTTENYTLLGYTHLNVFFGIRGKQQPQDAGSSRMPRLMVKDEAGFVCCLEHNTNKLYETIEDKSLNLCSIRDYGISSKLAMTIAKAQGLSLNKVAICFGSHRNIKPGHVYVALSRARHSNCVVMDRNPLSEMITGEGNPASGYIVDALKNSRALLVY"}},
  "note": "Results are given in words; binding and its absence hold for the method and conditions named. In cells and extracts the contact can be indirect. Here binding means that the protein was enriched with, or labelled near, the bait; the list need not be complete.",
  "data": [
    {"molecule": "mitochondrial antiviral-signaling protein (MAVS), endogenous (from UniProt Q7Z434 1-540)", "values": [
      {"measurement": "binding", "setting": "[1]", "value": "binds"}
    ]},
    {"molecule": "B1", "values": [
      {"measurement": "binding", "setting": "[2]", "value": "binds"}
    ]},
    {"molecule": "B2", "values": [
      {"measurement": "binding", "setting": "[3]", "value": "binds"}
    ]}
  ]
}
